# Results reported in the supplement of paper PMC8975748.
# Where a name gives a salt, the structure may show the parent alone. ± gives the standard deviation of the averaged measurements. The list shows a part of the results. Values are raw readings; no control value is given beside them.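 One yeast strain harboring four plasmids, each bearing a fluorescent protein plus an amino-acid or uracil synthesis gene, founds the community. Random loss of plasmids produces mixed prototroph and auxotroph subpopulations. Cells were fixed, then counted with automated confocal fluorescence imaging, with DMSO-treated wells as vehicle reference.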
# Test system: Saccharomyces cerevisiae BY4741 SeMeCo community
# Test: imaged cell count per well (cells); higher = more cells
# Details: 10 µM; 24 h; SM minimal medium
# Method: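 Same SeMeCo high-content imaging drug screen: Selleck FDA-approved drugs at 10 µM, 24 h in SM medium, 384-well plates, 3 replicates.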
row,SMILES,imaged cell count per well
1,CNS(=O)(=O)CCc1ccc2[nH]cc(C3CCN(C)CC3)c2c1 [Naratriptan HCl],23200 ± 4400
2,Nc1ccc(S(=O)(=O)c2ccc(N)cc2)cc1 [Dapson],21300 ± 8400
3,O=C(Nc1cc(Cl)cc(Cl)c1O)c1c(O)c(Cl)cc(Cl)c1Cl [Oxyclozanide],18400 ± 4800
4,CCCCc1oc2ccc(NS(C)(=O)=O)cc2c1C(=O)c1ccc(OCCCN(CCCC)CCCC)cc1 [Dronedarone HCl],19300 ± 8700
5,NC(=O)c1ncn([C@@H]2O[C@H](CO)[C@@H](O)[C@H]2O)n1 [Ribavirin],21100 ± 4400
6,C#CCN[C@@H]1CCc2ccccc21 [Rasagiline Mesylate],21300 ± 2500
7,CNCC[C@@H](Oc1ccccc1C)c1ccccc1 [Atomoxetine HCl],22500 ± 6800
8,CCn1cc(C(=O)O)c(=O)c2cc(F)c(N3CCNCC3)nc21 [Enoxacin Sesquihydrate],26900 ± 5700
9,NC(=O)[C@@H]1CC[C@@H]2CN1C(=O)N2OS(=O)(=O)O [Avibactam sodium],15500 ± 5800
10,CC1(C)S[C@@H]2[C@H](NC(=O)Cc3ccccc3)C(=O)N2[C@H]1C(=O)O [Benzylpenicillin potassium],24900 ± 1500
11,Clc1ccc(COC(Cn2ccnc2)c2ccc(Cl)cc2Cl)c(Cl)c1 (configuration not stated) [Miconazole],3350 ± 770
12,OB1OCc2cc(F)ccc21 [Tavaborole (AN-2690)],603 ± 180
13,CC(C(=O)O)c1cccc(C(=O)c2ccccc2)c1 (configuration not stated) [Ketoprofen],24800 ± 5200
14,CC1(C)S[C@@H]2[C@H](NC(=O)[C@H](N)c3ccc(O)cc3)C(=O)N2[C@H]1C(=O)O [Amoxicillin Sodium],24700 ± 4300
15,Cc1c(-c2ccc(O)cc2)n(Cc2ccc(OCCN3CCCCCC3)cc2)c2ccc(O)cc12 [Bazedoxifene HCl],20000 ± 4700
16,Nc1nc2c(ncn2COC(CO)CO)c(=O)[nH]1 [Ganciclovir],22300 ± 5400
17,Clc1ccc(CSC(Cn2ccnc2)c2ccc(Cl)cc2Cl)cc1 (configuration not stated) [Sulconazole Nitrate],2620 ± 910
18,C#C[C@]1(O)CC[C@H]2[C@@H]3CCC4=CCCC[C@@H]4[C@H]3CC[C@@]21C [Lynestrenol],22300 ± 5800
19,CCOC(=O)c1ccc(O)cc1 [Ethylparaben],17700 ± 9300

row,SMILES,imaged cell count per well
1,CC(C)[C@H]1CC[C@H](C(=O)N[C@H](Cc2ccccc2)C(=O)O)CC1 [Nateglinide],21300 ± 5100
2,CN1C(C(=O)Nc2ccccn2)=C(O)c2ccccc2S1(=O)=O [Piroxicam],21000 ± 2400
3,Oc1c(Cl)cc(Cl)c2cccnc12 [Chloroxine],655 ± 180
4,Clc1ccccc1C(c1ccccc1)(c1ccccc1)n1ccnc1 [Clotrimazole],5200 ± 1200
5,CC1=C(C(=O)OCCN(Cc2ccccc2)c2ccccc2)C(c2cccc([N+](=O)[O-])c2)C(P2(=O)OCC(C)(C)CO2)=C(C)N1 (configuration not stated) [Efonidipine],18400 ± 11000
6,Cc1c(OCC(F)(F)F)ccnc1C[S@@+]([O-])c1nc2ccccc2[nH]1 [Dexlansoprazole],30100 ± 3100
7,COc1ccc(-c2nc3cc(C4=NNC(=O)CC4C)ccc3[nH]2)cc1 (configuration not stated) [Pimobendan],25600 ± 1500
8,Clc1ccc(CCC(Cn2ccnc2)Sc2c(Cl)cccc2Cl)cc1 (configuration not stated) [Butoconazole nitrate],2860 ± 580
9,Nc1c(Br)cc(Br)cc1CN[C@H]1CC[C@H](O)CC1 [Ambroxol HCl],30800 ± 9400
10,Cc1ncc([N+](=O)[O-])n1C [Dimetridazole],20100 ± 2200
11,C[N+]1(C)[C@@H]2CC[C@H]1C[C@@H](OC(=O)C(O)c1ccccc1)C2 (some centres not stated) [Homatropine Methylbromide],23100 ± 9800
12,Cc1onc(-c2c(Cl)cccc2Cl)c1C(=O)N[C@@H]1C(=O)N2[C@@H]1SC(C)(C)[C@@H]2C(=O)O [Dicloxacillin Sodium],27000 ± 5600
13,Cn1c([N+](=O)[O-])cnc1COC(N)=O [Ronidazole],25000 ± 1000
14,CC(C)Cc1ccc(C(C)C(=O)O)cc1 (configuration not stated) [Ibuprofen],15600 ± 3700
15,COCCOC(=O)C1=C(C)NC(C)=C(C(=O)OC/C=C/c2ccccc2)C1c1cccc([N+](=O)[O-])c1 (configuration not stated) [Cilnidipine],27800 ± 11000
16,CC(=O)O[C@]1(C(C)=O)CC[C@H]2[C@@H]3C[C@H](C)C4=CC(=O)CC[C@]4(C)[C@H]3CC[C@@]21C [Medroxyprogesterone acetate],21000 ± 4300
17,Oc1ccc([C@H]2COc3cc(O)ccc3C2)cc1 [Equol],24200 ± 3000
18,O=C1CC2(CCCC2)CC(=O)N1CCCCN1CCN(c2ncccn2)CC1 [Buspirone HCl],22500 ± 6800

# Quoted from the listing.
# For imaged cell count per well, `CC1(C)S[C@@H]2[C@H](NC(=O)Cc3ccccc3)C(=O)N2[C@H]1C(=O)O` [Benzylpenicillin potassium] has 24900 ± 1500
# For imaged cell count per well, `Cc1c(-c2ccc(O)cc2)n(Cc2ccc(OCCN3CCCCCC3)cc2)c2ccc(O)cc12` [Bazedoxifene HCl] has 20000 ± 4700
